Source: article PMC10272136, “Molecular mechanisms of Holliday junction branch migration catalyzed by an asymmetric RuvB hexamer” (Nature Communications, 2022)

Key:
RuvB = molecular target: T1, RuvB (UniProt Q5SL87); assay: cryo-EM structure; details: 2 mM ATPgS, 10 mM MgCl2, single hexamer on dsDNA part (>20 bp seen), protomers A-D contact DNA, E and F do not, 20 mM Tris-HCl pH 7.5, 10 mM MgCl2, 1 mM DTT, 30 min at 37 C, gel filtration in 20 mM Tris-HCl, 150 mM NaCl, recombinant protein, protein details: N-terminal His tag (pET-28a, NdeI/SalI), folded or branched DNA
T1 sequence (looked up, limits assumed): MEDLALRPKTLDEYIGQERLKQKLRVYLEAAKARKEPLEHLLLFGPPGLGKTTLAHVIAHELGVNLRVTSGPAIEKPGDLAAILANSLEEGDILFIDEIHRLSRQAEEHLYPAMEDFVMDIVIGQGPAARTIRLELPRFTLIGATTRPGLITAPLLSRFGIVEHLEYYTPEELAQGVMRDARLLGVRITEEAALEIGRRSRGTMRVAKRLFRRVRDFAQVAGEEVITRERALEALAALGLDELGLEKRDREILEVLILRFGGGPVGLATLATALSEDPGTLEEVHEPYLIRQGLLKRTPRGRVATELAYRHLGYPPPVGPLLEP

RuvB double hexamer = molecular target: T2, RuvB double hexamer (UniProt Q5SL87); assay: cryo-EM structure; details: 2 mM ATPgS, 10 mM MgCl2, double hexamer on dsDNA part, 20 mM Tris-HCl pH 7.5, 10 mM MgCl2, 1 mM DTT, 30 min at 37 C, gel filtration in 20 mM Tris-HCl, 150 mM NaCl, recombinant protein, protein details: N-terminal His tag (pET-28a, NdeI/SalI), folded or branched DNA
T2 sequence (looked up, limits assumed): T1 sequence (looked up, limits assumed)

RuvB + RuvA = assay: gel filtration; details: 2 mM ATPgS, 10 mM MgCl2, RuvB:RuvA:HJ 6:4:1, no useful cryo-EM dataset of ternary complex, 20 mM Tris-HCl pH 7.5, 10 mM MgCl2, 1 mM DTT, 30 min at 37 C, gel filtration in 20 mM Tris-HCl, 150 mM NaCl, recombinant protein, folded or branched DNA

Measured: binding result

AGAATCTGCCGAGAGACCGAGCAGAATTCTATGTGTTTACCAAGCGCTG / CAGCGCTTGGTAAACACATAGAATTCTGCTCGGTCTGAGCCGTCTAAGA / TCTTAGACGGCTCACTGGCTGTGGGATCCGAGCTGTCTAGAGACATCGA / TCGATGTCTCTAGACAGCTCGGATCCCACAGCCAGTCTCGGCAGATTCT [HJ DNA (HJ1-HJ4)]
binds: all assays above

The exact form of at least one protein or probe is not confirmed. At least one verdict rests on a figure or table, not on a statement of the authors. For part of these data: Tags and fusion partners may be left off the protein sequences shown.
